Laboratory results: patent publication EP4610277A1 (Daiichi Sankyo Company, Limited, dated 2025)

Legend:
Assay in all cases: flow cytometry, KIR-Fc on scFv-K562 cells
[1] = molecular target: T1, recombinant KIR2DS1 (extracellular domain-Fc-Avi, in-house) (human)
T1 construct: In-house; IL-2 signal peptide left out; also called soluble KIR2DS1

[2] = molecular target: T2, recombinant KIR2DS2 (extracellular domain-Fc-Avi, in-house) (human)
T2 construct: In-house; IL-2 signal peptide left out; also called soluble KIR2DS2

[3] = molecular target: T3, recombinant KIR2DS4 (extracellular domain-Fc-Avi, in-house) (human)
T3 construct: In-house; IL-2 signal peptide left out; also called soluble KIR2DS4

Measured: binding result

B1: membrane-type a2DL2/3-DS11 scFv (scFv)
scFv: DYKDDDDKGSGQVQLVQSGAEVKKPGSSVKVSCKASGGTFSSYAISWVRQAPGQGLEWMGGIIPIFGTANYAQKFQGRVTITADESTSTAYMELSSLRSEDTAVYYCARLVSSGWYDPSDYWGQGTTVTVSSGGGGSGGGGSGGGGSQSVLTQPPSASGTPGQRVTISCSGSSSNIGSNTVNWYQQLPGTAPKLLIYSNNQRPSGVPDRFSGSKSGTSASLAISGLQSEDEADYYCLTWDDSLTAFVFGTGTKLTVLALSNSIMYFSHFVPVFLPAKPTTTPAPRPPTPAPTIASQPLSLRPEACRPAAGGAVHTRGLDFACDIYIWAPLAGTCGVLLLSLVITLYCNH
notes: On K562 cells
no binding (tested: 0.1 µM): [1] | [2] | [3]
